# Laboratory results: article PMC7819943, “Rice protein-binding microarrays: a tool to detect cis-acting elements near promoter regions in rice”
# The chains behind the UniProt entries cited, without tags or fusion partners.
# UniProt Q0JBA9, entry or part of it: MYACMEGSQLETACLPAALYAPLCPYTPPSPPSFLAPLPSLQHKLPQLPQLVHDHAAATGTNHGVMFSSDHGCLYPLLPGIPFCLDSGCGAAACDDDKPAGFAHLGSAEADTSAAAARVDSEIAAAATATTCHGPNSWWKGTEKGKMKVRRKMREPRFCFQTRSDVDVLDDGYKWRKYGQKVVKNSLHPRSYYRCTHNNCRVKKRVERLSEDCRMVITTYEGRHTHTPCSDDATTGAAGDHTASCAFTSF
# The other results are listed elsewhere or left out.
# Biological target: OsWRKY34 (Oryza sativa, UniProt Q0JBA9 1-250)
# Assay: protein-binding microarray (RPBM); PBS, 2% BSA, 51.3 ng/ul salmon testes DNA, 50 uM zinc acetate, 200 nM TF, 25 C, 1 h; high values mean tight binding
# Conditions: protein: recombinant; tags: N-terminal polyhistidine and DsRed monomer fusion (pET32a); label: CyDye5-dUTP incorporated in the synthesized complementary strand; 3' TTTTT single-stranded linker to array surface; dsDNA, one strand shown
# In short: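 Polyhistidine-tagged DsRed fusions of transcription factors, joined at the N-terminus, were expressed in E. coli BL21-CodonPlus and isolated on Ni–NTA. They were incubated at 200 nM for 1 h at 25 °C on a custom Agilent array, double-stranded and BSA-blocked, in PBS with 2% BSA, salmon testes DNA and 50 µM zinc acetate. The binding signal is per-feature fluorescence intensity (arbitrary units) read on an Axon 4000B scanner after washing.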
row,Sequence,binding signal
1,TCCGTCTCGCCTCGTCACCTCACCTCGGCATCACCCAGGTCGGAGTCACCTAGTGCAG,9220 fluorescence intensity (a.u.)
2,GCTTTTATTCTACTTGTACAGTATACTACCTTACTTACCTCGGAGTCACCTAGTGCAG,12200 fluorescence intensity (a.u.)
3,GCTCAAACTCCCGCAACGTTATCATCTCCACTCTTCCACCCGGAGTCACCTAGTGCAG,15400 fluorescence intensity (a.u.)
4,ACACCGTTGACTTTTTAGCACATGTTGGACTGTTCGTCTTCGGAGTCACCTAGTGCAG,39800 fluorescence intensity (a.u.)
5,GCTAGAAAAGTACGACAGCGACAAGCCAACAACAACAACTCGGAGTCACCTAGTGCAG,8080 fluorescence intensity (a.u.)
6,GTATGCCATTCGCCCAAGATGCTTTTGCTTCGCATGGACCCGGAGTCACCTAGTGCAG,8540 fluorescence intensity (a.u.)
7,TTCTGGTTTGGCATTTTGGCCCGTATAGAAAGAATTTGCCCGGAGTCACCTAGTGCAG,8310 fluorescence intensity (a.u.)
8,ATGTTTGGACTCCATAAGTTTCACTTAAAGTTTTTAGCATCGGAGTCACCTAGTGCAG,8150 fluorescence intensity (a.u.)
9,GGAAAATTGGATCTATGTCACTCCGTCGCGTTTTTCATCCCGGAGTCACCTAGTGCAG,10100 fluorescence intensity (a.u.)
10,GTCTTGTGTCAAGTGCCAGTCACTCAGTTCATCCACAGCACGGAGTCACCTAGTGCAG,8080 fluorescence intensity (a.u.)
11,GAACGGTCAAACATGTGCTAAAAAGTCAACGGTGTCAAACCGGAGTCACCTAGTGCAG,10100 fluorescence intensity (a.u.)
12,CGGCGGGTGGGGCGGTGGCGGTGAGGGATGCGGTGGTGGCCGGAGTCACCTAGTGCAG,10700 fluorescence intensity (a.u.)
13,TTCCTTAGCCAATGTGTTCAGATTCCTCACTTCTTTCACTCGGAGTCACCTAGTGCAG,12300 fluorescence intensity (a.u.)
14,ACACATACACACACTCGTCGTCTCACTCCCACAGTGATAACGGAGTCACCTAGTGCAG,8720 fluorescence intensity (a.u.)
15,TCTTTTGTCACATCTTTATAATATTGCCCATGGCACATACCGGAGTCACCTAGTGCAG,8490 fluorescence intensity (a.u.)
16,GCATCTCCTCTCCTCCATCCTTCCTCTCGGGGTTGGCCTCCGGAGTCACCTAGTGCAG,10500 fluorescence intensity (a.u.)
17,GCGTAGGGTGGTGTTTGGTACCGCGAGACCGTGCGTGAGTCGGAGTCACCTAGTGCAG,9380 fluorescence intensity (a.u.)
18,AACATCAGACTTACATGGTTCTCTTCTGTGGTGTTGCATGCGGAGTCACCTAGTGCAG,9540 fluorescence intensity (a.u.)
19,AGTACCTGCAACTTTCATGTTATGCAAATGACCTAGTTATCGGAGTCACCTAGTGCAG,8810 fluorescence intensity (a.u.)
20,TTGTTGCTATTTATGCCCATTAGCTTCTGGTAGACAAGGGCGGAGTCACCTAGTGCAG,8870 fluorescence intensity (a.u.)
21,ATCCACTGTTTGTGAATTGTCAATTTGTCATGCGTTGTACCGGAGTCACCTAGTGCAG,9440 fluorescence intensity (a.u.)

# A run of entries from further up, as a working copy:
row,Sequence,binding signal
2,GCTTTTATTCTACTTGTACAGTATACTACCTTACTTACCTCGGAGTCACCTAGTGCAG,12200 fluorescence intensity (a.u.)
3,GCTCAAACTCCCGCAACGTTATCATCTCCACTCTTCCACCCGGAGTCACCTAGTGCAG,15400 fluorescence intensity (a.u.)
4,ACACCGTTGACTTTTTAGCACATGTTGGACTGTTCGTCTTCGGAGTCACCTAGTGCAG,39800 fluorescence intensity (a.u.)
5,GCTAGAAAAGTACGACAGCGACAAGCCAACAACAACAACTCGGAGTCACCTAGTGCAG,8080 fluorescence intensity (a.u.)
6,GTATGCCATTCGCCCAAGATGCTTTTGCTTCGCATGGACCCGGAGTCACCTAGTGCAG,8540 fluorescence intensity (a.u.)
7,TTCTGGTTTGGCATTTTGGCCCGTATAGAAAGAATTTGCCCGGAGTCACCTAGTGCAG,8310 fluorescence intensity (a.u.)
8,ATGTTTGGACTCCATAAGTTTCACTTAAAGTTTTTAGCATCGGAGTCACCTAGTGCAG,8150 fluorescence intensity (a.u.)
9,GGAAAATTGGATCTATGTCACTCCGTCGCGTTTTTCATCCCGGAGTCACCTAGTGCAG,10100 fluorescence intensity (a.u.)
10,GTCTTGTGTCAAGTGCCAGTCACTCAGTTCATCCACAGCACGGAGTCACCTAGTGCAG,8080 fluorescence intensity (a.u.)
11,GAACGGTCAAACATGTGCTAAAAAGTCAACGGTGTCAAACCGGAGTCACCTAGTGCAG,10100 fluorescence intensity (a.u.)
12,CGGCGGGTGGGGCGGTGGCGGTGAGGGATGCGGTGGTGGCCGGAGTCACCTAGTGCAG,10700 fluorescence intensity (a.u.)

# (further entries)

row,Sequence,binding signal
1,AATGAAAATCGGGGCGTTACAATACCCATCGGGTTCTCTTCGGAGTCACCTAGTGCAG,8560 fluorescence intensity (a.u.)
2,TCCTTGTATTCCTGTCATCCTGTGTGCCACTTGATAGAAACGGAGTCACCTAGTGCAG,8900 fluorescence intensity (a.u.)
3,AACCTCCATCTCCCGCCCAGTGCCGCCGCGCCACGTCACCCGGAGTCACCTAGTGCAG,12700 fluorescence intensity (a.u.)
4,GGCTTTGCAATTGTCGCCTGTTGTTTGCAGATGCGCGCTCCGGAGTCACCTAGTGCAG,10400 fluorescence intensity (a.u.)
5,GGTTGGTGACGCGTTGTTGTTTGTTCCTCAAATTTGTTCTCGGAGTCACCTAGTGCAG,16500 fluorescence intensity (a.u.)
6,CCCGTGCCCGTCGTGCCCGACTGCCATCCCTATTCGAGACCGGAGTCACCTAGTGCAG,9800 fluorescence intensity (a.u.)
7,AAAATTGGAATCCGTCTCATCTTCGCTTGCTCTCTTCTCTCGGAGTCACCTAGTGCAG,8130 fluorescence intensity (a.u.)
8,ATCCATCCGTTTCATAATGTAAGACTTTCTAGCATTGTCCCGGAGTCACCTAGTGCAG,8250 fluorescence intensity (a.u.)
9,CCGTCGCACCGTCTCCACTCGTCCCGGATCAACAAACCGCCGGAGTCACCTAGTGCAG,10500 fluorescence intensity (a.u.)
10,CAACTAATTTCAAGCACCATCCAGACGTATATTTTTTTTCCGGAGTCACCTAGTGCAG,10000 fluorescence intensity (a.u.)
11,GGTGCTTTGGTTTACTACCTTCATTTTTTAATATATGACACGGAGTCACCTAGTGCAG,9010 fluorescence intensity (a.u.)
12,CCTCATCCTCTCGCTGATCCTCTCCCTCCTCACCTGCAAACGGAGTCACCTAGTGCAG,8350 fluorescence intensity (a.u.)
13,AATCTTTTTTTTGTTTTGCTGGTAGTATGTGCTGTCAAATCGGAGTCACCTAGTGCAG,8040 fluorescence intensity (a.u.)
14,ATTCAAATTTGTCAAACATTGTTTTCTTCTCTTTCATATCCGGAGTCACCTAGTGCAG,8650 fluorescence intensity (a.u.)
15,CCGCGCGGTGCTCGAGGTGTATGTCTCGTCCCACAACTTCCGGAGTCACCTAGTGCAG,9180 fluorescence intensity (a.u.)
16,GGGAGTCAAAGTAGACTTATTCTTCCCCAATCCATCTCAGCGGAGTCACCTAGTGCAG,8330 fluorescence intensity (a.u.)
17,TCCACCACCACCGCTGTACCACCGTGCGTTCCACTCTTCTCGGAGTCACCTAGTGCAG,13500 fluorescence intensity (a.u.)
18,TCTCTTTTTGTAGCTACACTACCAATAACCTATTGTCCTCCGGAGTCACCTAGTGCAG,9410 fluorescence intensity (a.u.)
19,AGGGATTTTTTTCTCACTACTTTTTTGCTGGCTTTGACGCCGGAGTCACCTAGTGCAG,10500 fluorescence intensity (a.u.)
20,TAGTGTTTGCTCTTCATCTAGAATTGTTGTGTTTCTGTACCGGAGTCACCTAGTGCAG,8760 fluorescence intensity (a.u.)
21,CACCTCGTTGCTCACGCCTCACCGCACCTCCACATCACCACGGAGTCACCTAGTGCAG,9690 fluorescence intensity (a.u.)
